From PMC3938055
No constants are given. Whether binding was seen depends on the method and setting. Some binding calls cover weakened binding; strength is not graded here. Blank lines part the entries; values can stand above or below the substance they belong to.

Chains of the proteins cited; added tags and fusions are not shown.
UniProt Q8N2Z9: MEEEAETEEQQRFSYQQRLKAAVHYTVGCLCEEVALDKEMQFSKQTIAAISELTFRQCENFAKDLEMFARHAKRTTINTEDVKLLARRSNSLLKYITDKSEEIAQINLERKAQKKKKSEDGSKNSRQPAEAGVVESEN
UniProt Q96BT3: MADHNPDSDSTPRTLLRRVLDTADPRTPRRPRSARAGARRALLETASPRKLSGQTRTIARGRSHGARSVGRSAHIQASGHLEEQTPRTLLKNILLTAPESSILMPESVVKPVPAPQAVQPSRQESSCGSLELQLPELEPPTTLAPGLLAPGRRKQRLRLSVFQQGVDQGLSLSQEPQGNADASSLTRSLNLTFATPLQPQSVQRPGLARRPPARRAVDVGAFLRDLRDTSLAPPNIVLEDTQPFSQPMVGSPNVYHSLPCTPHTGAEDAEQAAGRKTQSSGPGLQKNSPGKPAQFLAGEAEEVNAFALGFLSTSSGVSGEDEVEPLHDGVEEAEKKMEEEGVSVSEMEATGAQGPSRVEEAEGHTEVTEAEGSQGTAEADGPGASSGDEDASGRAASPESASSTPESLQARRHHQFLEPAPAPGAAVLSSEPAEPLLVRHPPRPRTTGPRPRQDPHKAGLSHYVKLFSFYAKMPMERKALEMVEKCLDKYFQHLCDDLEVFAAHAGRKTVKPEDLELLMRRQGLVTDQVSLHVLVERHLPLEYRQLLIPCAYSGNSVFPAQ
UniProt Q9NSP4: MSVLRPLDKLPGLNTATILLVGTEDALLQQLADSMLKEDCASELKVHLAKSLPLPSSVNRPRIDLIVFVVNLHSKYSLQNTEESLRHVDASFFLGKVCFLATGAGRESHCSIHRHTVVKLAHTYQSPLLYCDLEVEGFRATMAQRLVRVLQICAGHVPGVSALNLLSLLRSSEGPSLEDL
UniProt A8MT69: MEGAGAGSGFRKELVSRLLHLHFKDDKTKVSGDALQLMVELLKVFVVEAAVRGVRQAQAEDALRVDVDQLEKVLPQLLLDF
UniProt Q13352: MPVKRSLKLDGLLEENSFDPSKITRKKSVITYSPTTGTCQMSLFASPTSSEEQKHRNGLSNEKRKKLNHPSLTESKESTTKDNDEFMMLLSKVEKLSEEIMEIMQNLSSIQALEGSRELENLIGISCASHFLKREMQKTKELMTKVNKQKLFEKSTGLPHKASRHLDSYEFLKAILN

Key:
[1] = target: CENP-S (yeast two-hybrid fusion) (human) (UniProt Q8N2Z9); assay: two-hybrid; yeast two-hybrid; no details given
[2] = target: mCherry-CENP-S (human) (UniProt Q8N2Z9); assay: fluorescence cross-correlation spectroscopy (FCCS); EGFP- and mCherry-fusions co-expressed in living U2OS cells; 12 measurements in the cytoplasm
[3] = target: EGFP-CENP-T (UniProt Q96BT3); assay: two-hybrid; mammalian fluorescent two-hybrid (F2H) in BHK cells with a lac-operator array; EGFP-tagged bait tethered by LacI-GBP, recruitment of mCherry-tagged prey seen by confocal microscopy of fixed cells; the paper says it is not clear that recruitment is through direct interactions

binding [1]: no binding
Substance: CENP-M (yeast two-hybrid fusion) (from UniProt Q9NSP4 1-180)

binding [2]: binds
Substance: EGFP-CENP-X (from UniProt A8MT69 1-81)

binding [3]: no binding
Substance: mCherry-CENP-R (from UniProt Q13352 1-177)
